# Source: PMC7819943, “Rice protein-binding microarrays: a tool to detect cis-acting elements near promoter regions in rice”
# Protein sequences, listed by entry. Tags and fused reporters are not part of them.
# UniProt Q0JBA9, entry or part of it: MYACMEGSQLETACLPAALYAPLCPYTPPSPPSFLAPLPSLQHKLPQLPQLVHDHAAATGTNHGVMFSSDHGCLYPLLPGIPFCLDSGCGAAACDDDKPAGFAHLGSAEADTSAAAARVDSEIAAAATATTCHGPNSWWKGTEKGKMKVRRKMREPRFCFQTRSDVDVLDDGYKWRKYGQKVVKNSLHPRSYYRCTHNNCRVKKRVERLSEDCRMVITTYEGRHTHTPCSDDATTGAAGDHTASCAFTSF
# The other results are listed elsewhere or left out.
# Target: OsWRKY34 (Oryza sativa, UniProt Q0JBA9 1-250)
# Assay: protein-binding microarray (RPBM); PBS, 2% BSA, 51.3 ng/ul salmon testes DNA, 50 uM zinc acetate, 200 nM TF, 25 C, 1 h; high values mean tight binding
# Details: protein: recombinant; tags: N-terminal polyhistidine and DsRed monomer fusion (pET32a); label: CyDye5-dUTP incorporated in the synthesized complementary strand; 3' TTTTT single-stranded linker to array surface; dsDNA, one strand shown
# How it was run: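 The binding signal for each feature is its fluorescence intensity in arbitrary units. An Axon 4000B scanner was used to read a custom Agilent array that had been made double-stranded with Cy5-dUTP primer extension, blocked with 2% BSA, incubated at 25 °C for 1 h with 200 nM protein in PBS, 2% BSA, salmon testes DNA and 50 µM zinc acetate, and washed. The protein was an N-terminal polyhistidine–DsRed transcription factor fusion from E. coli BL21-CodonPlus, purified on Ni–NTA.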
row,Sequence,binding signal
1,CACATGTTATTACCACCTCATTTTGCGTAAAACACTTAATCGGAGTCACCTAGTGCAG,8460 fluorescence intensity (a.u.)
2,TGAACAGACAGCAATTACCTTTCGTGTTCTCTTCTAGGAACGGAGTCACCTAGTGCAG,9050 fluorescence intensity (a.u.)
3,CTCTATCTTTTTCTTACTCTCTCGTGTTCCTCTTCACTGCCGGAGTCACCTAGTGCAG,11100 fluorescence intensity (a.u.)
4,TATGGCTGTGTTCTTCCCTTCCTTTCCCAACTAACTTTCCCGGAGTCACCTAGTGCAG,8780 fluorescence intensity (a.u.)
5,TTAGTCTCTCTCTTAACCTCCTATGGATGTCTTGTATTTACGGAGTCACCTAGTGCAG,8550 fluorescence intensity (a.u.)
6,GTTCTATTGTACTGGTCAGTTCAGTGGACTCGGTTCTGTTCGGAGTCACCTAGTGCAG,9260 fluorescence intensity (a.u.)
7,GTTGTTTGGCTGTGTTTCTTGTGTTTTTAATGTTTCACTTCGGAGTCACCTAGTGCAG,13000 fluorescence intensity (a.u.)
8,TCTCTCCTACGTATATAAGCGGCTTCCTTCCCAACTAATTCGGAGTCACCTAGTGCAG,9210 fluorescence intensity (a.u.)
9,ACAGCAGCCCAGGCACAGCCCAACTCTCGGGCCCGTCATCCGGAGTCACCTAGTGCAG,8360 fluorescence intensity (a.u.)
10,TGACGTTTGACCAAAGTTTTCTTCAATTTTTCAGAAATGGCGGAGTCACCTAGTGCAG,9900 fluorescence intensity (a.u.)
11,TTGTAACTATGGTGTAGTCTTATTATCGCTCTTTTCTTTTCGGAGTCACCTAGTGCAG,9800 fluorescence intensity (a.u.)
12,AGGAGACCGATGGGGACATGGGGCGTGGCGGGAGAGGATTCGGAGTCACCTAGTGCAG,8620 fluorescence intensity (a.u.)
13,GGGCCCCGCTCTCAGTGTTTGTGCCTTGCGAGTTGGGAAGCGGAGTCACCTAGTGCAG,14900 fluorescence intensity (a.u.)
14,GGGTCGCTGTCTTGCTGAAATATGGGCTAACAAGCTGTGGCGGAGTCACCTAGTGCAG,8600 fluorescence intensity (a.u.)
15,CAATTGACATACACGACATATTTTTCCCCTTATTTTTTTTCGGAGTCACCTAGTGCAG,10400 fluorescence intensity (a.u.)
16,ATTCCAGCCCATGTTTGGCAAGTGCTATTTTTATGGTAAACGGAGTCACCTAGTGCAG,11700 fluorescence intensity (a.u.)
17,TTCTCCGCGCTGCAGTCCTCGCCACAACTCGTCGGCCGAACGGAGTCACCTAGTGCAG,11600 fluorescence intensity (a.u.)
18,TAGTAGTGTACTGTTTATATCTAATTTTGTCTTTTTTTTTCGGAGTCACCTAGTGCAG,12000 fluorescence intensity (a.u.)
19,CCAGCCCCGCGCCGGCCGCCGTCCGTCCGCCCGCGCGCGGCGGAGTCACCTAGTGCAG,8380 fluorescence intensity (a.u.)
20,TGGAGTAAACTTTTTTGACTCTGTGCCGTTGCCTGTTTTTCGGAGTCACCTAGTGCAG,12600 fluorescence intensity (a.u.)
21,GGGGAAGGAGAAGAGGAAGGAGAGGGGAGGAGGAGGAGGGCGGAGTCACCTAGTGCAG,8870 fluorescence intensity (a.u.)

row,Sequence,binding signal
1,CCGCTTTCCGATTCAGTTTTTTTTGTTCTTACCTTGCACGCGGAGTCACCTAGTGCAG,12500 fluorescence intensity (a.u.)
2,CTCCAAATCAGAAACACACTCGCCTCGCCTCCTTTCGCTCCGGAGTCACCTAGTGCAG,8540 fluorescence intensity (a.u.)
3,TTATCATCTGCCACCAGTTTTAGTTGTATACTTGCAGCCTCGGAGTCACCTAGTGCAG,11600 fluorescence intensity (a.u.)
4,CATTGATCTAGGATCACTCCGGTCTTTCCTTTCATGCTGACGGAGTCACCTAGTGCAG,10900 fluorescence intensity (a.u.)
5,ATATTGTTGACTTTTTAGCACATGTTTAACCGTTCATCTTCGGAGTCACCTAGTGCAG,19600 fluorescence intensity (a.u.)
6,ACGTCCCCGCCACGCAAGCGCCCATCCACCCGTCCATCCCCGGAGTCACCTAGTGCAG,9680 fluorescence intensity (a.u.)
7,GTTCCAAAATTTTTCTTTAAACTTCCAACATTTTCATCACCGGAGTCACCTAGTGCAG,9190 fluorescence intensity (a.u.)
8,CAAGCAATACCTATTTCCTGCACATGTCATCACCTCTTTTCGGAGTCACCTAGTGCAG,14100 fluorescence intensity (a.u.)
9,AACTCACCTCCTTCGTCTTCACACGCACGCTTTTCAAACTCGGAGTCACCTAGTGCAG,8450 fluorescence intensity (a.u.)
10,CCCGTTGCTACTTTGCTCCTCGCATCAGTCACCTGGGGATCGGAGTCACCTAGTGCAG,8300 fluorescence intensity (a.u.)
11,GAGGGAAATCGATCTGAGAGGGAGGAGGGGAGGAGGGGAGCGGAGTCACCTAGTGCAG,13600 fluorescence intensity (a.u.)
12,GCCTTTATGGACTGAGCTCTTTGTTTATTTACACCTTGTCCGGAGTCACCTAGTGCAG,12200 fluorescence intensity (a.u.)
13,AAGGCTCCAACTGTTCTTGTCACACTCTCACTGTCCACGCCGGAGTCACCTAGTGCAG,9170 fluorescence intensity (a.u.)
14,CTGGATGGTGGTGGTCGAACTATCAGGGGCGTTATGCATACGGAGTCACCTAGTGCAG,10200 fluorescence intensity (a.u.)
15,TTCTCTTGCTTCCTTTTTGGTCATTTGAGATAGCTTTATCCGGAGTCACCTAGTGCAG,10300 fluorescence intensity (a.u.)
16,TCTTCGGCCTCTCCGCCTCCGCCATTGACAGCGTTGACCACGGAGTCACCTAGTGCAG,18300 fluorescence intensity (a.u.)
17,CCCACCACACACCCGGCCCCACATGTCATCCACCCATCCACGGAGTCACCTAGTGCAG,16000 fluorescence intensity (a.u.)
18,ATTTGACATTTTCTAGCTAGTACAACCGGTTTCATTTTTACGGAGTCACCTAGTGCAG,11100 fluorescence intensity (a.u.)
19,ATCCTCGCTGCTCTTCTCCACTGGTTCTCCATCACCGGCTCGGAGTCACCTAGTGCAG,8160 fluorescence intensity (a.u.)
20,CAATGGTCACTACATATTTTGTTTGCACCACATATTTCTCCGGAGTCACCTAGTGCAG,9620 fluorescence intensity (a.u.)
21,CAGGGCCTTAATCGTATGTATCAGCTGAATTCCTGTATTGCGGAGTCACCTAGTGCAG,8480 fluorescence intensity (a.u.)

row,Sequence,binding signal
1,GGTTTTGGAGGGCGGTTTCGCTGATGTGGCGGTGTTGACTCGGAGTCACCTAGTGCAG,13500 fluorescence intensity (a.u.)
2,CCTTTTTTTGGCAAGGAGTTCCCACCGTGAGATCGAGATCCGGAGTCACCTAGTGCAG,9140 fluorescence intensity (a.u.)
3,ATATTACATGTTTTACTTCTGCAGTCTGTATAATTTCTTCCGGAGTCACCTAGTGCAG,14400 fluorescence intensity (a.u.)
4,CGCCATGGCTGCCGCCGCCGCCGCCGCCTCACTCTCCGTCCGGAGTCACCTAGTGCAG,9320 fluorescence intensity (a.u.)
5,TTTTTTTCTTTCTAAATTTCCTTTGTGGCTTGCTCTCTCCCGGAGTCACCTAGTGCAG,8490 fluorescence intensity (a.u.)
6,TACCTCCATATTTTAATGTATGACGCCGTTGACTTTTTATCGGAGTCACCTAGTGCAG,28900 fluorescence intensity (a.u.)
7,GAGACGTTGTATATCTGGTTTTGTGGTTTGGGGATGTTTTCGGAGTCACCTAGTGCAG,20100 fluorescence intensity (a.u.)
8,CATATGTTTGACCATTCGTCTTATTCAAAAATTTTATTCACGGAGTCACCTAGTGCAG,9660 fluorescence intensity (a.u.)
9,CACCCCACGTCACGCCGCACCCGCACCGTATCCTGCCCAACGGAGTCACCTAGTGCAG,8990 fluorescence intensity (a.u.)
10,CGCAACTCCCCGATCCCACGTGGTCACCGCGACCTCTCTACGGAGTCACCTAGTGCAG,8440 fluorescence intensity (a.u.)
11,GGGAGTAGTATTGATTTGACCATCGTTGACCAAGAATAAGCGGAGTCACCTAGTGCAG,17400 fluorescence intensity (a.u.)
12,GCTTAGTTTGATCTGGTTGAGGGGATACATATGTAGCTGTCGGAGTCACCTAGTGCAG,9980 fluorescence intensity (a.u.)
13,GGTGTAATTAGCTATCCTGTGAAAAGGTGTATTGGATCATCGGAGTCACCTAGTGCAG,8250 fluorescence intensity (a.u.)
14,GGGCGGGTGAGCAGTATTGTGCCATGTGAAACAGATACTACGGAGTCACCTAGTGCAG,14900 fluorescence intensity (a.u.)
15,GGTCCCCTACAAAGGTCTAGAGGTCACTAGTAGTACACACCGGAGTCACCTAGTGCAG,8570 fluorescence intensity (a.u.)
16,ATCTCTGATTTTTTTTTACATTTTTTTGCAACTTTTTGGACGGAGTCACCTAGTGCAG,8080 fluorescence intensity (a.u.)
17,TTCGGATGCCACTTTTCCCAACCTCTCTCATTCGTTTTCCCGGAGTCACCTAGTGCAG,9580 fluorescence intensity (a.u.)
18,TTTGTGGTTGGTTGTATCGTGATCCTGAGTGTGAAAAAACCGGAGTCACCTAGTGCAG,8120 fluorescence intensity (a.u.)
19,CGTGTCCGAAAAATCCTTCCAACATCCGGTCAAATATCTGCGGAGTCACCTAGTGCAG,8180 fluorescence intensity (a.u.)
20,ATGTTATTATGTGTTGGTCTTATTTTGTGGACTAATGTAACGGAGTCACCTAGTGCAG,8180 fluorescence intensity (a.u.)
21,TGAGTGTACGTACCGTTGTCAGTGTCCGCGTTGTAATTCTCGGAGTCACCTAGTGCAG,10600 fluorescence intensity (a.u.)

# Looked up above.
# binding signal, ATATTACATGTTTTACTTCTGCAGTCTGTATAATTTCTTCCGGAGTCACCTAGTGCAG is entered as 14400 fluorescence intensity (a.u.)
# binding signal, CGCCATGGCTGCCGCCGCCGCCGCCGCCTCACTCTCCGTCCGGAGTCACCTAGTGCAG is entered as 9320 fluorescence intensity (a.u.)
# binding signal, TTCGGATGCCACTTTTCCCAACCTCTCTCATTCGTTTTCCCGGAGTCACCTAGTGCAG is entered as 9580 fluorescence intensity (a.u.)
# binding signal, TTTGTGGTTGGTTGTATCGTGATCCTGAGTGTGAAAAAACCGGAGTCACCTAGTGCAG is entered as 8120 fluorescence intensity (a.u.)

# (next part)

row,Sequence,binding signal
1,CACCGCTGCAACTACTGCCGCCGAGCCACGTCGCGCCGCCCGGAGTCACCTAGTGCAG,8430 fluorescence intensity (a.u.)
2,CTCGTTGATAACATTTGGATAAATCATTTTGTTCCTATTTCGGAGTCACCTAGTGCAG,9810 fluorescence intensity (a.u.)
3,CCTGTATAAATTCTTGTGTGTCTCTTGCTGCGCGGGGTGGCGGAGTCACCTAGTGCAG,12300 fluorescence intensity (a.u.)
4,TGCAGCTTTGCCGCGCGTATTTTCTAGTCCCTATCTGGATCGGAGTCACCTAGTGCAG,8580 fluorescence intensity (a.u.)
5,TGTTTAGCTACTTCCTCGCTTTCTTTAAGTATGTTTCATACGGAGTCACCTAGTGCAG,10300 fluorescence intensity (a.u.)
6,TTTTTGCGTGCTCTTATCCTGTTTAGTTGTTGGCTTGTGACGGAGTCACCTAGTGCAG,10400 fluorescence intensity (a.u.)
7,TCATCAGAGTACCAATCCCCTTTATACCTGAACCTTTACACGGAGTCACCTAGTGCAG,8420 fluorescence intensity (a.u.)
8,ATGTACGACGCTATTGACTTTTTAACCAACGTTTGACTATCGGAGTCACCTAGTGCAG,11000 fluorescence intensity (a.u.)
9,ACTCATGTCCGACGTCCTGCTGCTCCTGTCGCTCCACTGACGGAGTCACCTAGTGCAG,8450 fluorescence intensity (a.u.)
10,ATTTCTTTGTTCATATACACTTGATATACCTTACTCCCAACGGAGTCACCTAGTGCAG,9080 fluorescence intensity (a.u.)
11,AGCTCTCTCTCTCTCTCTCTCGTTCTTGCGGGCCTGCGACCGGAGTCACCTAGTGCAG,8380 fluorescence intensity (a.u.)
12,TGTTTGGTAGTAGTTACATTAATAATTCCATTGAATTTACCGGAGTCACCTAGTGCAG,8680 fluorescence intensity (a.u.)
13,AAGATACACGATTGATTCATTGTTTGCACCAACAATATGCCGGAGTCACCTAGTGCAG,10100 fluorescence intensity (a.u.)
14,GTACAGCGATACTCTTATCTTTTTTTAAAAAAATGTTTCCCGGAGTCACCTAGTGCAG,9200 fluorescence intensity (a.u.)
15,TACTCCCTTCTTCCTTAGATGTTTGACACCGTTGACTTTTCGGAGTCACCTAGTGCAG,16900 fluorescence intensity (a.u.)
16,AAAGGCTTGCATTGTGGTAGAGAGGGGATGCATGCTACTCCGGAGTCACCTAGTGCAG,8400 fluorescence intensity (a.u.)
17,GTTACACAATTCTACACTGGTCATACAAGGCAGCACTATCCGGAGTCACCTAGTGCAG,8250 fluorescence intensity (a.u.)
18,AGTATGTCATCTGTGTTTAAGTCGATTTTAAGTTCATTCGCGGAGTCACCTAGTGCAG,8180 fluorescence intensity (a.u.)
19,TATGTGGGTGATTTGTTACAACGGCGCGTTCCATAATATTCGGAGTCACCTAGTGCAG,11500 fluorescence intensity (a.u.)
20,CGGTCATCGGTCGACGTCCCAACTTTCTTTTCACCTCACGCGGAGTCACCTAGTGCAG,9150 fluorescence intensity (a.u.)
21,TATTTTTTGTGATGTTTTAGTTGATGTTTCACTACTTTATCGGAGTCACCTAGTGCAG,8690 fluorescence intensity (a.u.)
